Laboratory results: PubChem BioAssay AID1259425 (University of Nebraska Medical Center, 2018)

Aim: 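Find knockdowns that reproduce the gene expression pattern seen when KSR1 is lost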 (primary screen)
Cells: HCT116 human colon cancer cells
Knock-down reagent: siRNA pool against human genes, 50 nM siRNA
Read-out: 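mRNA of six signature genes measured together by branched-DNA assay after 50 nM siRNA pool, blank removed, divided by geometric mean of two housekeeping genes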
Reading the numbers: BNIP3L mRNA: higher = more BNIP3L transcript after knockdown
The deposit covers about 14,000 reagents; shown is an unselected part. The numbers tell different reagents against one gene apart. Further read-outs or replicates are left out here. The record does not give: the time to read-out.

BNIP3L mRNA, set 1, by gene and reagent
BTN1A1 (butyrophilin subfamily 1 member A1): #1 0.0997
EPS8 (EGFR pathway substrate 8, signaling adaptor): #1 0.0828
RERGL (RERG like): #1 0.112
SOD1 (superoxide dismutase 1): #1 0.206
MCEE (methylmalonyl-CoA epimerase): #1 0.153
SGCA (sarcoglycan alpha): #1 0.142
TARBP2 (TARBP2 subunit of RISC loading complex): #1 0.197
NDUFV2 (NADH:ubiquinone oxidoreductase core subunit V2): #1 0.0332
CAV1 (caveolin 1): #1 0.0464
OGFRL1 (opioid growth factor receptor like 1): #1 0.122
S100A1 (S100 calcium binding protein A1): #1 0.0881
TRAPPC13 (trafficking protein particle complex subunit 13): #1 0.0614
NUDCD1 (NudC domain containing 1): #1 0.173
DDX1 (DEAD-box helicase 1): #1 0.0769
SCAF4 (SR-related CTD associated factor 4): #1 0.105
DACH1 (dachshund family transcription factor 1): #1 0.0785
HIRIP3 (HIRA interacting protein 3): #1 0.198
MKNK2 (MAPK interacting serine/threonine kinase 2): #1 0.0579
DMAC2L (distal membrane arm assembly component 2 like): #1 0.0735
TSPAN31 (tetraspanin 31): #1 0.139
PLCG2 (phospholipase C gamma 2): #1 0.164
MBP (myelin basic protein): #1 0.203
EXOSC9 (exosome component 9): #1 0.156
STX8 (syntaxin 8): #1 0.126
RINT1 (RAD50 interactor 1): #1 0.0726
OTUD6B (OTU deubiquitinase 6B): #1 0.0446
GRM6 (glutamate metabotropic receptor 6): #1 0.154
CYP2S1 (cytochrome P450 family 2 subfamily S member 1): #1 0.101
MECOM (MDS1 and EVI1 complex locus): #1 0.0991; #2 0.118
RPS10 (ribosomal protein S10): #1 0.0373
RIPK3 (receptor interacting serine/threonine kinase 3): #1 0.148
SERPINA4 (serpin family A member 4): #1 0.135
PART1 (prostate androgen-regulated transcript 1): #1 0.161
RALGDS (ral guanine nucleotide dissociation stimulator): #1 0.0878
ADGRV1 (adhesion G protein-coupled receptor V1): #1 0.254
TET2 (tet methylcytosine dioxygenase 2): #1 0.128; #2 0.0571
ASIC2 (acid sensing ion channel subunit 2): #1 0.064
SLC24A2: #1 0.168
TRIM7 (tripartite motif containing 7): #1 0.0598
ARCN1 (archain 1 coat protein complex I subunit delta): #1 0.736
COXFA4L3 (cytochrome c oxidase associated subunit FA4L3): #1 0.28
PCDHGA2 (protocadherin gamma subfamily A, 2): #1 0.0634
RRAGD (Ras related GTP binding D): #1 0.0714
RPL19 (ribosomal protein L19): #1 0.334
DKK2 (dickkopf Wnt signaling pathway inhibitor 2): #1 0.129
MRPL50 (mitochondrial ribosomal protein L50): #1 0.105
CRAT (carnitine O-acetyltransferase): #1 0.135
TMC8 (transmembrane channel like 8): #1 0.155

Not a retest: an excerpt of the list.
BNIP3L mRNA, set 1, by gene and reagent
DACH1 (dachshund family transcription factor 1): #1 0.0785
HIRIP3 (HIRA interacting protein 3): #1 0.198
MKNK2 (MAPK interacting serine/threonine kinase 2): #1 0.0579
DMAC2L (distal membrane arm assembly component 2 like): #1 0.0735
